Reference: paper PMC12055972
No constants are given. Whether binding was seen depends on the method and setting. In cells and extracts the contact can be indirect. Some results given as binding are weak or reduced against the parent protein; the word gives no strength.

Protein sequences, listed by entry. Tags and fused reporters are not part of them.
UniProt P51149: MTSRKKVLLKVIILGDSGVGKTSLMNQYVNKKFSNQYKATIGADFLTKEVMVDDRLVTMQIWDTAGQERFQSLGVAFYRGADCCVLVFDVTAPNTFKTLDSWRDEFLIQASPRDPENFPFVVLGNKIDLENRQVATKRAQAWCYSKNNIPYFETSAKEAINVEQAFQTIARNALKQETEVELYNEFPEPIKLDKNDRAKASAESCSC

Biological target: T1, vascular endothelial (VE)-cadherin (human (endogenous in HLMVECs)) (UniProt P33151)
T1 sequence: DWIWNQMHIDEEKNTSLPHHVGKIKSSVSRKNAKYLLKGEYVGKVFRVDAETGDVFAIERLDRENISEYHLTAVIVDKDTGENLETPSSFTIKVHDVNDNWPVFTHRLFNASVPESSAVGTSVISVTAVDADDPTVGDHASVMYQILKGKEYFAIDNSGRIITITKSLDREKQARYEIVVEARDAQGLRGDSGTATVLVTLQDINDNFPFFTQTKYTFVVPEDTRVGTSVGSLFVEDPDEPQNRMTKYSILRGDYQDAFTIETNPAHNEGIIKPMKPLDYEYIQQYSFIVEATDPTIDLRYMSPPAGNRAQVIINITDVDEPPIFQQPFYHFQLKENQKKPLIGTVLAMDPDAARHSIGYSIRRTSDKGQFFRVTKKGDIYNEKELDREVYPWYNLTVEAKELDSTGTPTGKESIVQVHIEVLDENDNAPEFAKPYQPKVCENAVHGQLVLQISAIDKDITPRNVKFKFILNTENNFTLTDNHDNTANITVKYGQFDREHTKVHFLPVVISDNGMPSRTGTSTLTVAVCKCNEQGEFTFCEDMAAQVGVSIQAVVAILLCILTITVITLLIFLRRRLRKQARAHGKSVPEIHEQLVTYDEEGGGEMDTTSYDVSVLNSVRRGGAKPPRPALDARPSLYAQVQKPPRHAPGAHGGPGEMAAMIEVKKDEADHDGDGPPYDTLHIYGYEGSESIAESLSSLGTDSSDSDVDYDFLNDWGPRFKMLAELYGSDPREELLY
Experiment: co-IP; HLMVECs with or without cyclic stretch, lysed in IP-buffer; supernatant with protein A/G beads, the corresponding antibodies and homologous IgG overnight at 4 °C; five washes; western blot

In the case of “Ras-related protein RAB7 (from UniProt P51149 1-207)”, the binding is reported as “binds”.
